In PubChem BioAssay AID485298 (National Center for Advancing Translational Sciences (NCATS), 2010):
Out of some 320,000 compounds screened, about 740 (0.23%) were called active. The shares of active, inactive and inconclusive entries below differ from those in the screen. Calls come from the whole dose curve; as a rule, active = well fitted activation curve with a large enough effect; inconclusive = small, poorly fitted or top-dose-only effect; inactive = no such curve, though single readings can be large or run the other way. Potencies beside an inconclusive call are fits to weak or partial responses and may not hold up.

Assay: qHTS Assay for Small Molecule Inhibitors of Mitochondrial Division or Activators of Mitochondrial Fusion; note: nearly all actives have a fitted effect of over 45% in size
Conditions: S. cerevisiae fusion-defective mutant growth rescue, CellTiterGlo 48 h; series mostly up to 46.1 µM
Outline: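 Luminescent cell viability in 1536-well qHTS format served as the measure of rescued growth in ts fusion-mutant S. cerevisiae cultured on non-fermentable YPEG for 48 hours at 37C.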
Potency is the fitted concentration of half-maximal effect.

| SMILES | Potency |
| --- | --- |
| CCn1c(=O)c2cc(C(=O)N(C)c3cc(C)ccc3OC)sc2c2ccccc21 | inconclusive: 12.6 µM [activator, partial curve] |
| CCC(C)Oc1ccc(/C=C/c2[nH]c(=O)[nH]c(=O)c2[N+](=O)[O-])cc1OC (stereo not given) | inconclusive: 28.2 µM [activator, single point] |
| CC1(C)C2CCC1(CS(=O)(=O)NCc1ccc(Cl)cc1Cl)C(=O)C2 (stereo not given) | inconclusive: 17.8 µM [activator, partial curve] |
| O=C(CSc1nc2ccccc2[nH]1)Nc1c(F)c(F)c(F)c(F)c1F | inconclusive: 2.82 µM [activator, partial curve] |
| COc1ccc(-c2cc3nc(-c4ccccc4)cc(N4CCC(O)CC4)n3n2)cc1 | inconclusive: 12.6 µM [activator, partial curve] |
| C=CCNc1nc(Nc2ccc(OC)cc2)nc(OC)n1 | inactive |
| COc1cccc(-c2cc(C(=O)N3CCCc4ccccc43)no2)c1 | inactive |
| O=[N+]([O-])c1cccc(-c2c(-c3ccccc3)ncc3cc(F)ccc23)c1 | inconclusive: 22.4 µM [activator, single point] |
| CN(Cc1ccccc1)C(=O)c1oc(=O)c2ccccc2c1-c1ccccc1 | inconclusive: 12.6 µM [activator, partial curve] |
| CN1C(=O)N(C)C2(c3ccccc3)N(C(C)(C)C)C(=O)NC12c1ccccc1 (stereo not given) | inactive |
| Clc1ccc(Oc2nnnn2-c2ccccc2)cc1 | inactive |
| O=C(CCN1CCCCC1)Nc1cccc(Cl)c1 | inactive |
| CCN(Cc1ccccc1)C(=O)c1oc2ccc(S(=O)(=O)N3CCOCC3)cc2c1C | active: 10 µM |
| O=C1Nc2ccc([N+](=O)[O-])cc2OC1CCN1CCN(c2ccccc2)CC1 (stereo not given) | inactive |
| COc1ccccc1-c1nnc2sc(COc3ccc(Cl)cc3)nn12 | inactive |
| O=[N+]([O-])c1ccc(O)c(Nc2ncnc3ccccc23)c1 | inactive |
| CC1(C)CC(=O)C2=C(C1)NC(=S)C(C#N)C21CCCCC1 (stereo not given) | inactive |
| O=C(NCCSc1c[nH]c2ccccc12)c1ccc(Br)o1 | inactive |
| CN(C)CC(CCC(CN(C)C)C(=O)c1ccccc1)C(=O)c1ccccc1 (stereo not given) | inactive |
| CCc1ccc(Nc2ccc(C(N)=O)cc2[N+](=O)[O-])cc1 | inconclusive: 31.6 µM [activator, single point] |
| O=C(Oc1ccc(Cl)cc1)c1ccc(N2CCOCC2)c([N+](=O)[O-])c1 | inactive |
| N#CC1=C2SCN(Cc3ccccc3)CN2C(=O)CC1c1ccc2c(c1)OCO2 (stereo not given) | inactive |
| COCCn1c(=S)[nH]c2sc3c(c2c1=O)CCC(C)C3 (stereo not given) | inconclusive: 17.8 µM [activator, single point] |

Entries above that contain a cyano group (two):

| SMILES | Potency |
| --- | --- |
| CC1(C)CC(=O)C2=C(C1)NC(=S)C(C#N)C21CCCCC1 (stereo not given) | inactive |
| N#CC1=C2SCN(Cc3ccccc3)CN2C(=O)CC1c1ccc2c(c1)OCO2 (stereo not given) | inactive |

Later entries.

| SMILES | Potency |
| --- | --- |
| Cc1ccc(S(=O)(=O)N(C)S(=O)(=O)c2ccc(C)cc2)cc1 | inconclusive: 15.8 µM [activator, partial curve] |
| O=C(NCC(c1ccco1)N1CCN(c2ccccc2F)CC1)OCc1ccccc1 (stereo not given) | inconclusive: 17.8 µM [activator, partial curve] |
| CCCCCCSc1ccc([C@H]2N[C@@](CC(C)C)(C(=O)OC)[C@H]3C(=O)N(C)C(=O)[C@@H]23)cc1OC | inconclusive: 35.5 µM [activator, single point] |
| COc1ccc(NS(=O)(=O)c2ccc(C)c(C(=O)NC3CCN(Cc4ccccc4)CC3)c2)cc1 | inactive |
| CCCC(=O)Nc1nc2ccc(NC(=O)c3ccc(Br)o3)cc2s1 | inconclusive: 22.4 µM [activator, partial curve] |
| O=C(c1ccc([N+](=O)[O-])o1)N1CCN(c2nc3c(F)cc(F)cc3s2)CC1 | inconclusive: 22.4 µM [activator, single point] |
| CCc1cc(C(=O)Cc2ccc(F)cc2)c(O)cc1O | inconclusive: 10 µM [activator, partial curve] |
| COc1ccc(-c2nc(N3CCOCC3)nc3n[nH]c(N)c23)cc1 | inconclusive: 31.6 µM [activator, single point] |
| CCOc1ccc(-c2cccc(NC(=O)c3ccc(Br)o3)c2)nn1 | inconclusive: 12.6 µM [activator, single point] |
| Cn1c(C(=O)NCCc2c[nH]c3ccccc23)cc2sccc21 | inconclusive: 12.6 µM [activator, partial curve] |
| CCC(C)(C)c1ccc(Oc2ccc(NC(=O)COC(=O)C3=COCCO3)cc2)cc1 | inconclusive: 10 µM [activator, partial curve] |
| Cc1c(C(=O)Nc2ccc3nc(N4CCOCC4)sc3c2)oc2ccccc12 | inconclusive: 15.8 µM [activator, single point] |
| COc1ccc2c(c1)C(=O)N1[C@H]3c4cc(Br)ccc4OC[C@@H]3[C@H](c3ccccc3)[C@]1(C)C(=O)N2 | inconclusive: 2.24 µM [activator, full curve, poor fit] |
| Cc1cc(C)c2c(c1)c(C)cc1nnc(SCC(=O)NCc3ccco3)n12 | inconclusive: 6.31 µM [activator, single point] |
| Cc1[nH]c2ccccc2c1SCCNC(=O)c1ccc(S(=O)(=O)N2CCCC2)cc1 | inconclusive: 5.62 µM [activator, single point] |
| Cc1cccc(-c2nc(C#N)c(NCc3ccco3)o2)c1 | inconclusive: 22.4 µM [activator, partial curve] |
| COc1ccc(NCC(=O)n2c(C)c(C)c3ccccc32)cc1 | inactive |
| CCOc1ccc2cc(/C=C/C(=O)c3ccco3)c(Cl)nc2c1 | inactive |
| CCN(CC)c1ccc2c(C)c(-c3ccc(N)cc3)c(=O)oc2c1 | inconclusive: 12.6 µM [activator, single point] |
| Nc1ccc(N2CCN(c3ccc(F)cc3)CC2)cc1 | inactive |
| CCOC(=O)Cn1c(=NC(=O)c2ccc([N+](=O)[O-])s2)sc2ccccc21 | inconclusive: 14.1 µM [activator, partial curve] |
| O=c1n(Cc2ccc(Cl)cc2)c2sc3c(c2c2ncnn12)CCCC3 | inconclusive: 14.1 µM [activator, single point] |

Fetched one by one from the entries so far:

| SMILES | Potency |
| --- | --- |
| Cc1ccc(S(=O)(=O)N(C)S(=O)(=O)c2ccc(C)cc2)cc1 | inconclusive: 15.8 µM [activator, partial curve] |
| COc1ccccc1-c1nnc2sc(COc3ccc(Cl)cc3)nn12 | inactive |
